Patent publication US8987207B2, “Peptides which have analgesic effects and which inhibit ASIC channels” (Centre National de la Recherche Scientifique—CNRS, priority 2010, dated 2015)
Entries after “also recorded” stand apart in the source; their conditions may differ. At least one peptide structure holds a part that was inferred or is arguable (an end, a ring closure or a residue). Bridges are numbered along the chain shown (N, C = ends). Where no end group is shown, it is not given here.

What was measured:
[1] = biological target: T1, rat homomeric ASIC1b channels (Rattus norvegicus, UniProt P55926); experiment: Patch-clamp, rat homomeric ASIC1b current in COS cells; format: cell-based; conditions: read-out: IC50, inhibition of the rat homomeric ASIC1b current, whole cell patch-clamp, peptide applied at pH 7.4 30 s before pH drop
T1 construct: expressed in transfected cells; host or cells: COS cell line
T1 sequence (P55926 1-559 isoform P55926-3): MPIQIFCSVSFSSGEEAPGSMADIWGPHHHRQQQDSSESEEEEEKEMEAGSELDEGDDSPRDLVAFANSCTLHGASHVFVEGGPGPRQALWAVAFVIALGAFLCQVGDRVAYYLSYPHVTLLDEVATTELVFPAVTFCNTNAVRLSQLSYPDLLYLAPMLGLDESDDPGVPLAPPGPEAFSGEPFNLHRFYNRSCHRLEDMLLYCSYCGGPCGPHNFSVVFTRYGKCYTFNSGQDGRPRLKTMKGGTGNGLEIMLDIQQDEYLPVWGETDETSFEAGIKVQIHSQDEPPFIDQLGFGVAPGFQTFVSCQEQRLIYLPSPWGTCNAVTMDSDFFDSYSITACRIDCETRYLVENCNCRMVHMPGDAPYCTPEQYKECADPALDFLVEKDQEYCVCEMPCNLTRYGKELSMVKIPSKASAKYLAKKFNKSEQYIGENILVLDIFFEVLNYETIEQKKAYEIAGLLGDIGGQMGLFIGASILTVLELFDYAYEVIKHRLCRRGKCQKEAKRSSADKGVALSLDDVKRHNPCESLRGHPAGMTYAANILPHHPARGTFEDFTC

[2] = test system: mouse dorsal spinal cord neurons; experiment: Membrane potential and excitability of spinal neurons in culture (patch-clamp); format: cell-based; conditions: for excitability of neurons in response to an acidic pH drop: pH drop from 7.4 to 6.0; for spontaneous synaptic electrical activity, shape and threshold of evoked action potentials / modification of basal current level and resting potential: spinal neurons in culture; for spontaneous synaptic electrical activity, shape and threshold of evoked action potentials: applied current mode; for modification of basal current level and resting potential: whole cell patch-clamp
[3] = biological target: T2, rat homomeric ASIC1a channels (Rattus norvegicus, UniProt P55926); experiment: Patch-clamp, rat homomeric ASIC1a current in COS cells; format: cell-based; conditions: read-out: IC50, inhibition of the rat homomeric ASIC1a current, whole cell patch-clamp, peptide applied at pH 7.4 30 s before pH drop
T2 construct: expressed in transfected cells; host or cells: COS cell line
T2 sequence (P55926 1-526): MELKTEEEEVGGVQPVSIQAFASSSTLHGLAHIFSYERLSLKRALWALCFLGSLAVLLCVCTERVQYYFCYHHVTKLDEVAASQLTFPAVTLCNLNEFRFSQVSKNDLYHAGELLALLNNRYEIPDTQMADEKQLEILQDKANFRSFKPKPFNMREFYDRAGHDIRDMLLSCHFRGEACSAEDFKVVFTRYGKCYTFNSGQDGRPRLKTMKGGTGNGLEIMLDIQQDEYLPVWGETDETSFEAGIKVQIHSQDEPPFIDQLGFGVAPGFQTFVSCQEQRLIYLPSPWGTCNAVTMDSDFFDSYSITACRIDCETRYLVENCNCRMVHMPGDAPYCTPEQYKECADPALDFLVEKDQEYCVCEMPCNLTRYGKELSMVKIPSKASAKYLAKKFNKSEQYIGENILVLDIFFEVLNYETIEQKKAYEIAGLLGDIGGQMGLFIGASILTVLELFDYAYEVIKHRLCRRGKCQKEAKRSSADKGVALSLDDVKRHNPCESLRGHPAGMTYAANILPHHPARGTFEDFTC

[4] = test system: ASIC current of sensory neurons of rat; experiment: Native ASIC current of rat sensory neurons in primary culture (patch-clamp); format: cell-based; conditions: neurons from adult rat spinal ganglia, whole cell patch-clamp
[5] = biological target: T3, homomeric ASIC1a channels (Homo sapiens, UniProt P78348); experiment: Patch-clamp, human homomeric ASIC1a current in COS cells; format: cell-based; set-up: expressed in transfected cells; host or cells: COS cell line; conditions: read-out: IC50, inhibition of the human homomeric ASIC1a current, whole cell patch-clamp, peptide applied at pH 7.4 30 s before pH drop
T3 sequence (P78348 1-528): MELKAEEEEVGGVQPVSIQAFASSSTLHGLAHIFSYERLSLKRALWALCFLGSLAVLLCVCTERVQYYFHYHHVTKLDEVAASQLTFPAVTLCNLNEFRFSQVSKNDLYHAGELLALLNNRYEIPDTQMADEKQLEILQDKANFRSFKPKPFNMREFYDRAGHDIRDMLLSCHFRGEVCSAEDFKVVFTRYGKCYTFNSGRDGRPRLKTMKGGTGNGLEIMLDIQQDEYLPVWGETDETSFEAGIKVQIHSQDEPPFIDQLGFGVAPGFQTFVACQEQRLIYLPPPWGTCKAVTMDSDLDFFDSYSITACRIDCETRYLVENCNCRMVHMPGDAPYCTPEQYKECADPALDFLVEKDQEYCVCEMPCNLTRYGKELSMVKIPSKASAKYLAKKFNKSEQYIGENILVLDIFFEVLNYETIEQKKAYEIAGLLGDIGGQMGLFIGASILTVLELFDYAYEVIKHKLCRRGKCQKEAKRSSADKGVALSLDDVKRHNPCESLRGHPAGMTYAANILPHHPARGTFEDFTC

[6] = test system: ASIC current of hippocampal neurons of mice; experiment: Native ASIC current of mouse hippocampal neurons in primary culture (patch-clamp); format: cell-based; conditions: newborn mouse (2 days) hippocampus neurons
[7] = biological target: T4, rat heteromeric ASIC1b+ASIC3 channels (Rattus norvegicus, UniProt O35240+P55926); experiment: Patch-clamp, rat heteromeric ASIC1b+ASIC3 current in COS cells; format: cell-based
T4 construct: expressed in transfected cells; host or cells: COS cell line
T4 sequence (P55926 1-559 isoform P55926-3): T1 sequence (P55926 1-559 isoform P55926-3)
T4 sequence (O35240 1-533): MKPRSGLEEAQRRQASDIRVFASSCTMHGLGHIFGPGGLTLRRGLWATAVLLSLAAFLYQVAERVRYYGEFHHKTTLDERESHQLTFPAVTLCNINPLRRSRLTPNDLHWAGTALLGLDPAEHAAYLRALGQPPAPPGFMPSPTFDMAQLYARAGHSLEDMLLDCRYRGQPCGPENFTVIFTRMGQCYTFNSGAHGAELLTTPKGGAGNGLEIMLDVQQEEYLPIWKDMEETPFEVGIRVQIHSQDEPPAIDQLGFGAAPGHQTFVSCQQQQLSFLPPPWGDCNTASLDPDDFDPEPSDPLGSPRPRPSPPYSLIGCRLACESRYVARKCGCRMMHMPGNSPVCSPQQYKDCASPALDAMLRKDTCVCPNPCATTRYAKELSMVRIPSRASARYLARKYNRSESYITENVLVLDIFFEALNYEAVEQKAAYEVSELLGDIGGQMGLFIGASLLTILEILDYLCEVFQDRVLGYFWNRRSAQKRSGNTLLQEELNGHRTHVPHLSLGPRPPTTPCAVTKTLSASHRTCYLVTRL

[8] = Acute thermal pain, tail withdrawal latency at 46° C. after intrathecal injection; format: in vivo; conditions: mice, IT 0.34 nmol
[9] = Carrageenan inflammatory hyperalgesia, paw withdrawal latency after subcutaneous injection; format: in vivo; conditions: mice
[10] = Carrageenan inflammatory hyperalgesia, paw withdrawal latency after intrathecal injection; format: in vivo; conditions: mice, IT 0.34 nmol

Sequence	IC50 [1] [nM]	excitability of neurons in response to an acidic pH drop [2]	excitability of the neuron, action potential evoked by electric stimulation ([2]; peptide 852 nM, FIG. 7B)	spontaneous synaptic electrical activity, shape and threshold of evoked action potentials [2]	modification of basal current level and resting potential [2]	IC50 [3] [nM]	inhibition of total ASIC current of sensory neurons [4]	IC50 [5] [nM]	inhibition of ASIC current of hippocampal neurons [6]	inhibition of rat heteromeric ASIC1b+ASIC3 channels [7]	analgesic effect on tail withdrawal latency ([8]; 7 minutes after injection, water 46° C.)	inhibition of the analgesic effect by naxolone pretreatment (tail withdrawal) ([8]; naxolone 2 mg/kg sc)	thermal inflammatory hyperalgesia, peptide coinjected with carrageenan ([9]; SC hind paw 0.34 nmol with 2% carrageenan)	inflammatory hyperalgesia, peptide injected when inflammation is established ([9]; SC two hours after carrageenan alone)	effect of a second SC injection two hours later ([9]; after coinjection with carrageenan)	analgesia on inflammatory hyperalgesia, paw withdrawal latency ([10]; 2 h after 2% carrageenan, persisting 67 minutes)	inhibition of the analgesic effect by naxolone pretreatment (inflammatory hyperalgesia) ([10]; naxolone 2 mg/kg sc) [%]	resting potential and spontaneous activity of the neuron ([2]; peptide 674 nM, FIG. 7A)	depolarization induced by the acid pH drop ([2]; peptide 674 nM, pH drop 7.4 to 6, FIG. 7A)
LKCFQHGKVVTCHRDMKFCYHNTGMPFRNLKLILQGCSSSCSETENNKCCSTDRCNK (disulfide 3-19, 12-37, 41-49, 50-55) [ASICalgin-2]	650	reduces the excitability	does not modify the excitability	does not modify	do not induce any modification	49	reversibly inhibit; also recorded: partial inhibitory effect	127	reversibly inhibit	do not inhibit	–	–	–	–	–	–	–	–	–
LKCYQHGKVVTCHRDMKFCYHNTGMPFRNLKLILQGCSSSCSETENNKCCSTDRCNK (disulfide 3-19, 12-37, 41-49, 50-55) [ASICalgin-1]	650	reduces the excitability	–	does not modify	do not induce any modification	49	reversibly inhibit; also recorded: partial inhibitory effect	127	reversibly inhibit	do not inhibit	as powerful as that of morphine	not significantly inhibited	no thermal inflammatory hyperalgesia is observed	reverses the inflammatory hyperalgesia	no additional significant effect	rapid analgesia, comparable to that of morphine	20	does not modify the resting potential	reduced and no longer induces an action potential
